Reference: PubChem BioAssay AID192 (DTP/NCI, 2004)
The list does not hold the whole screen: it gathers some chemical classes. Not every dose and run of a compound is shown. T/C: endpoint of the treated group in % of that of the vehicle group. Some doses have a count of surviving animals in place of a T/C: the source holds a T/C of zero for them, seemingly a mark for toxic or unscored doses. Some survivor counts are full or nearly so, which does not show that the dose was tolerated: survival well below the control is almost never listed, so the zero probably covers shortened survival too. Counts of survivors are from the toxicity check (mostly the fifth day) where no day follows; animals may have died later. Schedule codes are those of the source, taken here to give the interval after Q, in days (D) or hours (H), and the number of doses after X. For survival time, this PubChem deposit counts one and a half times the control or more as active, and values a quarter to a half above the control carry no call in these data; other NCI protocols may use other cut-offs. Some entries show no survivor count and are marked so; the dose need not have been tolerated. Some entries hold several experiments; the results are listed from low to high.

Tested on: BDF1 mice, B16 melanoma ip, median survival T/C
Assay: NCI In Vivo Anticancer Drug Screen. Data for tumor model B16 Melanoma (intraperitoneal) in B6D2F1 (BDF1) mice
Details: T/C endpoint: median survival time, schedule: Q01DX009 (ip), higher T/C = longer survival
Method: The antitumor activity of compounds was measured in mice bearing transplantable tumors. Survival or tumor size were measured and the results are expressed as the measurement made in the treated group (T) divided by the measurement made in the vehicle treated control group (C). The tumor model used in this assay is B16 Melanoma (intraperitoneal) in B6D2F1 (BDF1) mice

[1] = dose: 1.0 mg/kg/injection, vehicle: saline
[2] = dose: 3.0 mg/kg/injection, vehicle: saline with Tween-80
[3] = dose: 3.12 mg/kg/injection, vehicle: Klucel (hydroxypropylcellulose) (HPC)
[4] = dose: 6.0 mg/kg/injection, vehicle: saline with Tween-80
[5] = dose: 12.5 mg/kg/injection, vehicle: Klucel (hydroxypropylcellulose) (HPC)
[6] = dose: 25.0 mg/kg/injection, vehicle: Klucel (hydroxypropylcellulose) (HPC)
[7] = dose: 50.0 mg/kg/injection, vehicle: Klucel (hydroxypropylcellulose) (HPC)
[8] = dose: 100.0 mg/kg/injection, vehicle: Klucel (hydroxypropylcellulose) (HPC)
[9] = dose: 200.0 mg/kg/injection, vehicle: Klucel (hydroxypropylcellulose) (HPC)
[10] = dose: 6.25 mg/kg/injection, vehicle: Klucel (hydroxypropylcellulose) (HPC)

## CC1(C)NC(=O)N(CCN(CCCl)CCCl)C1=O
dose: 0.38 mg/kg/injection, vehicle: saline with Tween-80
  T/C: 115 % of control [survivor count not shown]
dose: 0.68 mg/kg/injection, vehicle: saline
  T/C: 125 % of control [survivor count not shown]
dose: 0.75 mg/kg/injection, vehicle: saline with Tween-80
  T/C: 112 % of control [survivor count not shown]
dose: 0.78 mg/kg/injection, vehicle: Klucel (hydroxypropylcellulose) (HPC)
  T/C: 104 % of control [survivor count not shown]
[1]
  T/C: 112 % of control [survivor count not shown]
dose: 1.5 mg/kg/injection, vehicle: saline with Tween-80
  T/C: 98 % of control [survivor count not shown]
dose: 1.56 mg/kg/injection, vehicle: Klucel (hydroxypropylcellulose) (HPC)
  T/C: 121 [survivor count not shown] and 145 % of control [survivor count not shown]
[2]
  T/C: 106 % of control [survivor count not shown]
[3]
  T/C: 127 % of control [survivor count not shown]
[4]
  T/C: 143 % of control [survivor count not shown]
dose: 6.0 micrograms/kg/injection, vehicle: Klucel (hydroxypropylcellulose) (HPC)
  T/C: 105 % of control [survivor count not shown]
dose: 12.0 micrograms/kg/injection, vehicle: Klucel (hydroxypropylcellulose) (HPC)
  T/C: 110 % of control [survivor count not shown]
dose: 25.0 micrograms/kg/injection, vehicle: Klucel (hydroxypropylcellulose) (HPC)
  T/C: 104 % of control [survivor count not shown]
dose: 50.0 micrograms/kg/injection, vehicle: Klucel (hydroxypropylcellulose) (HPC)
  T/C: 100 % of control [survivor count not shown]
dose: 100.0 micrograms/kg/injection, vehicle: Klucel (hydroxypropylcellulose) (HPC)
  T/C: 101 % of control [survivor count not shown]

## N#CC(C#N)=Cc1ccc(N(CCCl)CCCl)cc1
[5]
  T/C: 93 % of control [survivor count not shown]
[6]
  T/C: 94 % of control [survivor count not shown]
[7]
  T/C: 96 % of control [survivor count not shown]
[8]
  T/C: 94 % of control [survivor count not shown]
[9]
  T/C: 108 % of control [survivor count not shown]

## CC(C(=O)O)N(CCCl)CCCl (stereo not drawn)
dose: 0.12 mg/kg/injection, vehicle: saline
  T/C: 92 % of control [survivor count not shown]
dose: 0.25 mg/kg/injection, vehicle: saline
  T/C: 97 [survivor count not shown] and 133 % of control [survivor count not shown]
dose: 0.5 mg/kg/injection, vehicle: saline
  T/C: 119 [survivor count not shown] and 135 % of control [survivor count not shown]
[1]
  T/C: 119 [survivor count not shown] and 147 % of control [survivor count not shown]
dose: 1.25 mg/kg/injection, vehicle: saline
  T/C: 155 % of control [survivor count not shown]
dose: 2.0 mg/kg/injection, vehicle: saline
  T/C: 161 % of control [survivor count not shown]
dose: 2.5 mg/kg/injection, vehicle: saline
  T/C: 180 [survivor count not shown] and 185 % of control [survivor count not shown]
dose: 5.0 mg/kg/injection, vehicle: saline
  T/C: 150 % of control [survivor count not shown]
dose: 10.0 mg/kg/injection, vehicle: saline
  T/C: 168 % of control [survivor count not shown]
dose: 20.0 mg/kg/injection, vehicle: saline
  T/C: 213 % of control [survivor count not shown]

## N#Cc1ccc(N(CCCl)CCCl)cc1
[5]
  T/C: 90 % of control [survivor count not shown]
[6]
  T/C: 108 % of control [survivor count not shown]
[7]
  T/C: 95 % of control [survivor count not shown]
[8]
  T/C: 86 % of control [survivor count not shown]
[9]
  T/C: 93 % of control [survivor count not shown]

## BrCCN(CCBr)c1ccc2c(c1)Cc1ccccc1-2
[2]
  T/C: 123 % of control [survivor count not shown]
[3]
  T/C: 130 % of control [survivor count not shown]
dose: 5.56 mg/kg/injection, vehicle: saline with Tween-80
  T/C: 217 % of control [survivor count not shown]
[4]
  T/C: 135 % of control [survivor count not shown]
[10]
  T/C: 150 % of control [survivor count not shown]
dose: 8.33 mg/kg/injection, vehicle: saline with Tween-80
  T/C: 252 % of control [survivor count not shown]
dose: 12.0 mg/kg/injection, vehicle: saline with Tween-80
  T/C: 162 % of control [survivor count not shown]
[5]
  T/C: 171 % of control [survivor count not shown]
dose: 12.5 mg/kg/injection, vehicle: saline with Tween-80
  T/C: 117 [survivor count not shown] and 172 % of control [survivor count not shown]
dose: 18.7 mg/kg/injection, vehicle: saline with Tween-80
  T/C: 98 % of control [survivor count not shown]
dose: 24.0 mg/kg/injection, vehicle: saline with Tween-80
  T/C: 153 % of control [survivor count not shown]
[6]
  T/C: 198 % of control [survivor count not shown]
dose: 25.0 mg/kg/injection, vehicle: saline with Tween-80
  T/C: 102 % of control [survivor count not shown]
dose: 48.0 mg/kg/injection, vehicle: saline with Tween-80
  T/C: 106 % of control [survivor count not shown]
[7]
  T/C: 116 % of control [survivor count not shown]

## Cc1ccc(N(CCBr)CCBr)cc1
dose: 1.56 mg/kg/injection, vehicle: Klucel (hydroxypropylcellulose) (HPC), evaluated on day 60
  T/C: 143 % of control
dose: 1.56 mg/kg/injection, vehicle: Klucel (hydroxypropylcellulose) (HPC), evaluation day not shown
  T/C: 130 % of control [survivor count not shown]
[3]
  T/C: 121 % of control [survivor count not shown]
dose: 3.13 mg/kg/injection, vehicle: Klucel (hydroxypropylcellulose) (HPC)
  T/C: 150 % of control
[10]
  T/C: 130 % of control [survivor count not shown]
  survivor count: 10 of 10
[5]
  T/C: 130 % of control [survivor count not shown]
  survivor count: 10 of 10
[6]
  survivor count: 8 of 10

## COC(=O)CCc1ccc(CN(CCCl)CCCl)cc1
dose: 0.37 mg/kg/injection, vehicle: saline
  T/C: 94 % of control [survivor count not shown]
dose: 0.75 mg/kg/injection, vehicle: saline
  T/C: 108 % of control [survivor count not shown]
dose: 1.5 mg/kg/injection, vehicle: saline
  T/C: 108 % of control [survivor count not shown]
dose: 3.0 mg/kg/injection, vehicle: saline
  T/C: 118 % of control [survivor count not shown]
